Results are given in words; binding and its absence hold for the method and conditions named. Binding seen in cells or lysates may run through a third protein. For part of these data: A result given as binding can be weak or reduced; the word gives no strength. Where a sequence is shown, tags or fusion partners need not be part of it.
Assays:
[1] = biological target: FLAG-seipin, long translation (additional 64 amino acids at the N terminus) (human); test: co-IP; HEK293 cells co-transfected; ODG lysis buffer (50 mM ODG, 50 mM Tris pH 6.8, 150 mM NaCl, 1 mM EDTA); anti-FLAG agarose 2 h at 4 °C; elution with 3xFLAG peptide; immunoblot
[2] = biological target: FLAG-seipin-Yn (N-terminal fragment of YFP fused to the C terminus of seipin) (human) (UniProt Q96G97); test: split reporter; BiFC with halves of YFP in co-transfected HEK293 cells; 37 °C 4 h, 32 °C 20 h, 30 °C 2 h; fixed cells
[3] = biological target: Yn-seipin (N-terminal fragment of YFP fused to the N terminus of seipin) (human) (UniProt Q96G97); test: as above
[4] = biological target: FLAG-seipin-Yn (N-terminal fragment of YFP fused to the C terminus of seipin) (human) (UniProt Q96G97); test: split reporter; BiFC with halves of YFP in 3T3-L1 preadipocytes induced to differentiate and co-transfected; temperature shift; fixed at day 3 of differentiation

Sequences of proteins named here, by UniProt entry; tags and fusion partners are left off. A change or cut given only in a name is not applied to a line headed by its entry.
UniProt Q96G97: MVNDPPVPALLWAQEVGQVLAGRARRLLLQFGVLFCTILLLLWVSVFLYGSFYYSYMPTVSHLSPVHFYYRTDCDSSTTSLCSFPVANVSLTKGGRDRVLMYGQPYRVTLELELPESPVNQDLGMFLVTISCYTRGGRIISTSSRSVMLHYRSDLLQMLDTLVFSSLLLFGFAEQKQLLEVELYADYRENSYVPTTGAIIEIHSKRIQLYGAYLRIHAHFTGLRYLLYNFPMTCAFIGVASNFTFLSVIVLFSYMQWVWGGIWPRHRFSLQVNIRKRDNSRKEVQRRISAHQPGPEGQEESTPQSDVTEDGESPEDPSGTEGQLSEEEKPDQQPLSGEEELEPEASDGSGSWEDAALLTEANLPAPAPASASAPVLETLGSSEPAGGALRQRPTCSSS

B1: AGPAT2-Myc (Myc-tagged human 1-acylglycerol-3-phosphate O-acyltransferase 2) (enzyme, UniProt O15120 24-278)
chain: AEFYAKVALYCALCFTVSAVASLVCLLRHGGRTVENMSIIGWFVRSFKYFYGLRFEVRDPRRLQEARPCVIVSNHQSILDMMGLMEVLPERCVQIAKRELLFLGPVGLIMYLGGVFFINRQRSSTAMTVMADLGERMVRENLKVWIYPEGTRNDNGDLLPFKKGAFYLAVQAQVPIVPVVYSSFSSFYNTKKKFFTSGTVTVQVLEAIPTSGLTAADVPALVDTCHRAMRTTFLHISKTPQENGATAGSGVQPAQ
- binding [1]: binds

B2: Myc-AGPAT2-Yc (C-terminal fragment of YFP fused to the C terminus of AGPAT2-Myc) (enzyme, UniProt O15120 24-278)
chain: B1 chain
- binding [2]: binds
- binding [3]: no binding
- binding [4]: binds

B3: Yc-myc-AGPAT2 (C-terminal fragment of YFP fused to the N terminus of AGPAT2-Myc) (enzyme, UniProt O15120 24-278)
chain: B1 chain
- binding [2]: no binding
- binding [3]: no binding

— PMC4338318
